Measured values reported in PubChem BioAssay AID330 (DTP/NCI, 2004).
The list does not hold the whole screen: it gathers tests that were run many times, whatever their T/C, doses with no T/C, and many T/C values between a quarter and a half above the control. Further doses and runs are listed elsewhere. T/C is the treated group as % of the vehicle group. Some doses have a count of surviving animals in place of a T/C: the source holds a T/C of zero for them, seemingly a mark for toxic or unscored doses. Some doses without a T/C left all or most animals alive at the check, yet need not have been tolerated: survival well below the control is almost never listed, so the zero probably covers shortened survival too. Survivors were counted at the toxicity check, usually on the fifth day, unless a day is given; later deaths do not show. Schedule codes are those of the source, read here as Q, the interval in days (D) or hours (H), X, the number of doses. Some entries hold several experiments; the results are listed from low to high. For survival time, this PubChem deposit counts one and a half times the control or more as active, and values a quarter to a half above the control carry no call in these data; other NCI protocols may use other cut-offs. Some T/C values are followed by the survivors on the day toxicity was checked, most often the fifth; where none is given, no animal had died by that day.

Test system: P388 leukemia ip, CD2F1 mice, survival T/C
Assay: NCI In Vivo Anticancer Drug Screen. Data for tumor model P388 Leukemia (intraperitoneal) in CD2F1 (CDF1) mice
Conditions: T/C endpoint: median survival time, higher T/C = longer survival
[1] = dose: 200.0 mg/kg/injection, schedule: Q01DX005 (ip), vehicle: Klucel (hydroxypropylcellulose) (HPC)
[2] = dose: 400.0 mg/kg/injection, schedule: Q01DX009 (ip), vehicle: saline with Tween-80
[3] = dose: 100.0 mg/kg/injection, schedule: Q01DX009 (ip), vehicle: saline with Tween-80
[4] = dose: 200.0 mg/kg/injection, schedule: Q01DX009 (ip), vehicle: saline with Tween-80
[5] = dose: 400.0 mg/kg/injection, schedule: Q01DX009 (ip), vehicle: saline
[6] = dose: 100.0 mg/kg/injection, schedule: Q01DX005 (ip), vehicle: saline with Tween-80
[7] = dose: 200.0 mg/kg/injection, schedule: Q01DX005 (ip), vehicle: saline with Tween-80
[8] = dose: 240.0 mg/kg/injection, schedule: Q01DX005 (ip), vehicle: Klucel (hydroxypropylcellulose) (HPC)
[9] = dose: 50.0 mg/kg/injection, schedule: Q01DX005 (ip), vehicle: Klucel (hydroxypropylcellulose) (HPC)
[10] = dose: 50.0 mg/kg/injection, schedule: Q01DX005 (ip), vehicle: saline with Tween-80

**Q.** With COc1cc(NCC(O)CN2C(C)CCCC2C)c2ncccc2c1 (centres undefined) as the compound, how does the survivor count (dose: 25.0 mg/kg/injection, schedule: Q01DX005 (ip), vehicle: saline) read?
**A.** The survivor count was 4 of 5.

**Q.** And the survivor count (dose: 50.0 mg/kg/injection, schedule: Q01DX005 (ip), vehicle: saline)?
**A.** The survivor count was 0 of 5.

**Q.** And the survivor count (dose: 100.0 mg/kg/injection, schedule: Q01DX005 (ip), vehicle: saline)?
**A.** The survivor count was 0 of 5.

**Q.** And the survivor count (dose: 200.0 mg/kg/injection, schedule: Q01DX005 (ip), vehicle: saline)?
**A.** Its survivor count is 0 of 5.

**Q.** With CCCCOCCOCCOCCOCCCN1C(=O)C2C3C=CC(C3)C2C1=O (centres undefined) as the compound, how does the survivor count [1] read?
**A.** The survivor count was 0 of 5.

**Q.** COc1ccccc1N1C(=O)CSC1=S was tested. Which survivor count [2] did it give?
**A.** Its survivor count is 5 of 6.

**Q.** What does the source list for CN(C)C=Nc1ccc(Cl)cc1?
**A.** survivor count [3]: 0 of 6; survivor count [4]: 0 of 6

**Q.** Which survivor count (dose: 200.0 mg/kg/injection, schedule: Q04DX002 (ip), vehicle: saline with Tween-80) does the source give for NC(=S)n1nc(-c2ccccc2)c(N=Nc2ccc([N+](=O)[O-])cc2)c1-c1ccccc1 here?
**A.** The survivor count was 5 of 5.

**Q.** Which survivor count (dose: 12.5 mg/kg/injection, schedule: Q01DX009 (ip), vehicle: saline) does the source give for C[CH2][Sn]([Br])([CH2]C)[c]1c(CN(C)C)cccc1CN(C)C here?
**A.** The survivor count was 5 of 6.

**Q.** And the T/C (dose: 25.0 mg/kg/injection, schedule: Q01DX009 (ip), vehicle: saline)?
**A.** The T/C was 136 % of control [5 of 6 alive].

**Q.** And the survivor count (dose: 50.0 mg/kg/injection, schedule: Q01DX009 (ip), vehicle: saline)?
**A.** Its survivor count is 0 of 6.

**Q.** And the survivor count (dose: 100.0 mg/kg/injection, schedule: Q01DX009 (ip), vehicle: saline)?
**A.** Its survivor count is 0 of 6.

**Q.** What about the survivor count (dose: 200.0 mg/kg/injection, schedule: Q01DX009 (ip), vehicle: saline) of the same compound?
**A.** The survivor count was 0 of 6.

**Q.** What does the source list for O=C(O)c1cccnc1C(=O)O?
**A.** survivor count [5]: 3 of 6; survivor count (dose: 600.0 mg/kg/injection, schedule: Q01DX009 (ip), vehicle: saline): 3 of 6 and 5 of 6

**Q.** Which survivor count [6] does the source give for Cc1nc(N)nc(N)c1-c1ccc(N)cc1 here?
**A.** The survivor count was 0 of 6.

**Q.** And the survivor count [7]?
**A.** The survivor count was 0 of 6.

**Q.** For COc1cc2c(cc1O)C1CC(CC3CCCCN31)OC(=O)/C=C\c1ccc(O)c-2c1 (centres undefined), which survivor count (dose: 400.0 mg/kg/injection, schedule: Q04DX003 (ip), vehicle: saline) is on record?
**A.** The survivor count was 1 of 6.

**Q.** For O=C(Nc1cccc(Cl)c1)N1CCNC1=S, which survivor count (dose: 200.0 mg/kg/injection, schedule: Q01DX009 (ip), vehicle: Klucel (hydroxypropylcellulose) (HPC)) is on record?
**A.** The survivor count was 6 of 6.

**Q.** Which survivor count [7] does the source give for Cc1cc(Cl)nc2nc(Cl)ccc12 here?
**A.** Its survivor count is 3 of 6.

**Q.** With CC(CN(C)C)C(/C=C/c1ccc(Cl)cc1)=N\NC(=O)c1ccccc1 (centres undefined) as the compound, how does the survivor count (dose: 240.0 mg/kg/injection, schedule: Q01DX005 (ip), vehicle: saline) read?
**A.** Its survivor count is 0 of 6.

**Q.** What does the source list for O=S1(=O)CS(=O)(=O)OCCO1?
**A.** T/C (dose: 15.0 mg/kg/injection, schedule: Q01DX005 (ip), vehicle: Klucel (hydroxypropylcellulose) (HPC), evaluated on day 30): 182 % of control; T/C (dose: 15.0 mg/kg/injection, schedule: Q01DX005 (ip), vehicle: Klucel (hydroxypropylcellulose) (HPC), evaluated on day 45): 213 % of control; T/C (dose: 15.0 mg/kg/injection, schedule: Q01DX005 (ip), vehicle: Klucel (hydroxypropylcellulose) (HPC), evaluated on day 60): 199 and 206 % of control; T/C (dose: 22.0 mg/kg/injection, schedule: Q01DX005 (ip), vehicle: Klucel (hydroxypropylcellulose) (HPC), evaluated on day 30): 283 % of control; T/C (dose: 22.0 mg/kg/injection, schedule: Q01DX005 (ip), vehicle: Klucel (hydroxypropylcellulose) (HPC), evaluated on day 45): 297, 339, 412 % of control; T/C (dose: 22.0 mg/kg/injection, schedule: Q01DX005 (ip), vehicle: Klucel (hydroxypropylcellulose) (HPC), evaluated on day 60): 256, 281, 566 % of control; T/C (dose: 33.0 mg/kg/injection, schedule: Q01DX005 (ip), vehicle: Klucel (hydroxypropylcellulose) (HPC), evaluated on day 30): 283 % of control; T/C (dose: 33.0 mg/kg/injection, schedule: Q01DX005 (ip), vehicle: Klucel (hydroxypropylcellulose) (HPC), evaluated on day 45): 378 [9 of 10 alive], 412, 436 % of control; T/C (dose: 33.0 mg/kg/injection, schedule: Q01DX005 (ip), vehicle: Klucel (hydroxypropylcellulose) (HPC), evaluated on day 60): 566, 588, 625 % of control; T/C (dose: 50.0 mg/kg/injection, schedule: Q01DX005 (ip), vehicle: Klucel (hydroxypropylcellulose) (HPC), evaluated on day 30): 154, 277, 283 % of control [9 of 10 alive]; T/C (dose: 50.0 mg/kg/injection, schedule: Q01DX005 (ip), vehicle: Klucel (hydroxypropylcellulose) (HPC), evaluated on day 45): 405 [9 of 10 alive], 412, 436 % of control; T/C (dose: 50.0 mg/kg/injection, schedule: Q01DX005 (ip), vehicle: Klucel (hydroxypropylcellulose) (HPC), evaluated on day 60): 566, 588, 625 % of control; T/C (dose: 75.0 mg/kg/injection, schedule: Q01DX005 (ip), vehicle: Klucel (hydroxypropylcellulose) (HPC)): 138 % of control [7 of 10 alive]; survivor count (dose: 100.0 mg/kg/injection, schedule: Q01DX005 (ip), vehicle: Klucel (hydroxypropylcellulose) (HPC)): 0 of 5 and 0 of 6; survivor count [1]: 0 of 5

**Q.** For Cc1ccc2occ(-c3nnc(NC(=O)c4ccccc4)s3)c(=O)c2c1, which survivor count (dose: 240.0 mg/kg/injection, schedule: Q01DX005 (ip), vehicle: saline with Tween-80) is on record?
**A.** The survivor count was 5 of 6.

**Q.** How did the survivor count (dose: 60.0 mg/kg/injection, schedule: Q01DX005 (ip), vehicle: Klucel (hydroxypropylcellulose) (HPC)) turn out when CC1=C(C(=O)Nc2cccc3ccccc23)C(c2cccc([N+](=O)[O-])c2)C(C(=O)Nc2cccc3ccccc23)=C(C)N1 was run?
**A.** The survivor count was 6 of 6.

**Q.** What about the survivor count (dose: 120.0 mg/kg/injection, schedule: Q01DX005 (ip), vehicle: Klucel (hydroxypropylcellulose) (HPC)) of the same compound?
**A.** Its survivor count is 6 of 6.

**Q.** And the survivor count [8]?
**A.** Its survivor count is 6 of 6.

**Q.** With C=C1C(=O)OC2CC3=CCC(OC3=O)/C(C)=C\CC12 (centres undefined) as the compound, how does the survivor count (dose: 172.0 mg/kg/injection, schedule: Q01DX005 (ip), vehicle: Klucel (hydroxypropylcellulose) (HPC)) read?
**A.** The survivor count was 1 of 6.

**Q.** For O=c1oc(-c2ccccc2)nc2c1CCCS2, which survivor count [9] is on record?
**A.** Its survivor count is 6 of 6.

**Q.** Which T/C (dose: 6.25 mg/kg/injection, schedule: Q01DX009 (ip), vehicle: Klucel (hydroxypropylcellulose) (HPC)) does the source give for C[n+]1ccc2cc(N)c3c4ccccc4sc3c2c1 here?
**A.** The T/C was 133 % of control.

**Q.** And the T/C (dose: 12.5 mg/kg/injection, schedule: Q01DX009 (ip), vehicle: Klucel (hydroxypropylcellulose) (HPC))?
**A.** Its T/C is 139 % of control.

**Q.** And the survivor count (dose: 25.0 mg/kg/injection, schedule: Q01DX009 (ip), vehicle: Klucel (hydroxypropylcellulose) (HPC))?
**A.** The survivor count was 6 of 6.

**Q.** What about the survivor count (dose: 50.0 mg/kg/injection, schedule: Q01DX009 (ip), vehicle: Klucel (hydroxypropylcellulose) (HPC)) of the same compound?
**A.** The survivor count was 0 of 6.

**Q.** NNc1nncn1N was tested. Which survivor count [5] did it give?
**A.** The survivor count was 0 of 6.

**Q.** For O=C1NC(=O)C2(OC3c4ccccc4C=NN3C3=C2C(=O)CCC3)C(=O)N1 (centres undefined), which survivor count [8] is on record?
**A.** Its survivor count is 6 of 6.

**Q.** Which T/C [2] does the source give for CCC(CC)COC(=O)c1ccccc1C(=O)OCC(CC)CC here?
**A.** Its T/C is 132 and 148 % of control.

**Q.** What about the T/C (dose: 600.0 mg/kg/injection, schedule: Q01DX009 (ip), vehicle: saline with Tween-80) of the same compound?
**A.** Its T/C is 128 % of control.

**Q.** What does the source list for CC(Cc1ccc2c(c1)OCO2)NN (centres undefined)?
**A.** survivor count [10]: 0 of 5; survivor count [6]: 0 of 5; survivor count [7]: 0 of 5

**Q.** How did the survivor count (dose: 3.0 mg/kg/injection, schedule: Q01DX005 (ip), vehicle: Klucel (hydroxypropylcellulose) (HPC)) turn out when CCC1C2C(C(C)c3c[nH]c4ccccc34)NC(=O)C23C(=O)/C=C\C(=O)C(O)/C(C)=C/C(C)C/C=C/C3C2OC12C (centres undefined) was run?
**A.** Its survivor count is 0 of 6 and 3 of 6.

**Q.** And the survivor count (dose: 6.0 mg/kg/injection, schedule: Q01DX005 (ip), vehicle: Klucel (hydroxypropylcellulose) (HPC))?
**A.** The survivor count was 0 of 6.

**Q.** What about the survivor count (dose: 12.5 mg/kg/injection, schedule: Q01DX005 (ip), vehicle: Klucel (hydroxypropylcellulose) (HPC)) of the same compound?
**A.** Its survivor count is 0 of 5.

**Q.** What about the survivor count (dose: 25.0 mg/kg/injection, schedule: Q01DX005 (ip), vehicle: Klucel (hydroxypropylcellulose) (HPC)) of the same compound?
**A.** Its survivor count is 0 of 5.

**Q.** And the survivor count [9]?
**A.** The survivor count was 0 of 5.

**Q.** How did the survivor count [4] turn out when CC(C)(C)SC(=O)C1CCCCC1 was run?
**A.** Its survivor count is 4 of 6.

**Q.** O=C(Nc1ccc([N+](=O)[O-])cc1)N1CCOCC1 was tested. Which survivor count [3] did it give?
**A.** Its survivor count is 6 of 6.

**Q.** Which survivor count [10] does the source give for CS(=O)(=O)c1snc(N)c1C#N here?
**A.** Its survivor count is 0 of 6.

**Q.** And the survivor count [6]?
**A.** The survivor count was 0 of 6.

**Q.** What about the survivor count [7] of the same compound?
**A.** Its survivor count is 0 of 6.
